# Measurements taken from patent publication US7863033B2, “Lactobacillus living body activating Lactobacillus preparation and preventive or therapeutic agent for living body infection” (BHPH Company Limited, priority 2003, dated 2011).
# Some results were stated once for a whole list of compounds, not compound by compound. For at least one compound, name, drawing or mass did not settle the structure.
# Tested on: bacteria in plaque
# Assay: Live cell counts in plaque soaked in disinfectant (Test Example 4)
# Type: cell-based
compound,measurement,value
CC(O)C(=O)O.CCOc1ccc2nc3cc(N)ccc3c(N)c2c1 [Acrinol],time to eliminate bacteria on the plaque surface,≤ 3 min
